At least one compound was matched to its structure with a doubt left.
Columns and labels:
[1] = tested on: Genetically diabetic mice; assay: Antidiabetic effect (IV): genetically diabetic mice, acarbose and β3 agonist; format: in vivo; details: oral, 2 weeks; ACA 1 mg/kg; compound c, d 0.3 mg/kg; e, g 3 mg/kg; h, i 1 mg/kg; alone or combined
Mice = assay: Antilipemic effect (II): plasma triglyceride in mice, bezafibrate and β3 agonist; format: in vivo; details: oral, 2 weeks; administered solely: BEZ 3 mg/kg; compound c, d 0.3 mg/kg; e, g 3 mg/kg; h, i 1 mg/kg
vehicle dog = details: PRA 0.625˜1.25 mg/kg; method of Tsujita, T. et al.; cited from earlier work
[2] = tested on: Genetically diabetic mice; assay: Antidiabetic effect (III): genetically diabetic mice, rosiglitazone and β3 agonist; format: in vivo; details: oral, 2 weeks; ROS 1 mg/kg; compound c, d 0.3 mg/kg; e, g 3 mg/kg; h, i 1 mg/kg; alone or combined
Procedure: Genetically diabetic mice were orally administered with rosiglitazone (ROS: 1 mg/kg), a β3 agonist (compound c: 0.3 mg/kg; compound d: 0.3 mg/kg; compound e: 3 mg/kg; compound g: 3 mg/kg; compound h: 1 mg/kg; compound i: 1 mg/kg), or ROS and a β3 agonist (compound c, compound d, compound e, compound g, compound h, and compound i) in combination (each dosage was the same as the aforementioned) for 2 weeks. Blood was collected thereafter, and the amount of glucose contained in blood plasma was measured.

For C[C@H]1O[C@H](O[C@H]2[C@H](O)[C@@H](O)[C@@H](O[C@H]3[C@H](O)[C@@H](O)C(O)O[C@@H]3CO)O[C@@H]2CO)[C@H](O)[C@@H](O)[C@@H]1N[C@H]1C=C(CO)[C@@H](O)[C@H](O)[C@H]1O (some centres unmarked) [ACA, acarbose, reference compound], the “blood glucose level (glucose in blood plasma)” value [1] was “no difference”.

For CC(C)(Oc1ccc(CCNC(=O)c2ccc(Cl)cc2)cc1)C(=O)O [BEZ, bezafibrate, reference compound], the plasma triglyceride level (Mice) was “no difference”.

In the case of CC[C@H](C)C(=O)O[C@H]1C[C@H](O)C=C2C=C[C@H](C)[C@H](CC[C@@H](O)C[C@@H](O)CC(=O)O)[C@H]21 [PRA, pravastatin], the blood cholesterol level (vehicle dog) is given as “decrease” and the “level of triglyceride in blood” value (vehicle dog) is given as “decrease”.

In the case of CN(CCOc1ccc(CC2SC(=O)NC2=O)cc1)c1ccccn1 (centres unmarked) [ROS, rosiglitazone, reference compound], the “blood glucose level (glucose in blood plasma)” value [2] is reported as “no difference in the blood glucose level”.
